These results are taken from PMC8780828 (Viruses, 2021).

The data set can be described thus: in vitro. Particulars: human.

Each structure is given as a SMILES string.

`C[C@H]1O[C@@H](O[C@H]2[C@@H](O)C[C@H](O[C@H]3[C@@H](O)C[C@H](O[C@H]4CC[C@@]5(C)[C@H](CC[C@@H]6[C@@H]5C[C@@H](O)[C@]5(C)[C@@H](C7=CC(=O)OC7)CC[C@]65O)C4)O[C@@H]3C)O[C@@H]2C)C[C@H](O)[C@@H]1O` [Digoxin, reference compound]: the efflux ratio (Caco-2) amounted to 37.9. Moreover, the apparent permeability from basolateral to apical (Papp B→A) (Caco-2, B-to-A Papp (cell batch quality control)) stood at 12.9 ×10⁻⁶ cm/s.
